Measured values from PubChem BioAssay AID493014 (National Center for Advancing Translational Sciences (NCATS), 2011).
The list shows a part of the results. These are further read-outs of the screen, such as a control signal, another cell line or another target. No call is given for them. Compounds called inactive in the main read-out are mostly missing here. The note in brackets gives the kind of curve behind each potency; many fits are weak.

Test: qHTS Assay to Find Inhibitors of Chronic Active B-Cell Receptor Signaling
Details: ABC-DLBCL IkBa-CBG/CBR reporter, luminescence ratio (green luciferase fused to IkBa over red control in TMD8 lymphoma cells), 4 h
How it was run: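 Concentration-response series (up to 46 uM) were applied to TMD8 dual-reporter cells for 4 h at 37C with doxycycline. Green/red ratio, after filter-overlap correction, defined %Activity; red signal alone was normalised to basal cells and zero luminescence.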

[1] = measured here: CBR red luminescence, cell number
[2] = measured here: IkBa-CBG green luminescence

SMILES	AC50 [1]	AC50 [2]
CCN(CC)c1ccc(NC(=O)c2ccccc2F)cc1	20.6 µM [falling, partial curve]	
c1ccc(N2OCC3Cn4c(nc5ccccc54)C32)cc1 (centres undefined)	3.55 µM [falling, partial curve]	
CC1Cc2cccc3c(O)c(C(=O)c4nn[nH]n4)c(=O)n1c23 (centres undefined)	2.31 µM [rising, full curve, poor fit]	
CCOc1ccc(C)cc1S(=O)(=O)Nc1ccc(Cl)cn1	29.1 µM [falling, single point]	
C=CCNC(=O)c1ccccc1NC(=O)c1cccc2ccccc12	23.1 µM [rising, single point]	
CCOc1ccc(C(=O)NCC(c2ccco2)N2CCc3ccccc3C2)cc1 (centres undefined)	6.51 µM [rising, single point]	
Cc1ccc2c(c1)=C(c1sc(N(C)c3ccc(O)cc3)nc1O)C(=O)N=2	0.891 µM [falling, full curve]	
S=C1SCN(Cc2cccnc2)CN1Cc1ccccc1	35.5 µM [falling, single point]	
COC(=O)c1cn(NC(=O)c2ccc3c(c2)OCO3)c(=O)c2ccccc12	1.46 µM [rising, partial curve, poor fit]	
O=C(/C=C/c1ccc([N+](=O)[O-])cc1)Nc1cccnc1	8.91 µM [falling, partial curve]	
CC(C)CCN1C(=O)c2ccc(C(=O)OCC(=O)N(C)C3CCS(=O)(=O)C3)cc2C1=O (centres undefined)	5.17 µM [falling, partial curve]	
Cc1cc(C)c(C(N)=O)c(SCC(=O)c2cc(C)c(C)cc2C)n1	10.3 µM [falling, single point]	
O=C(/C=C/c1cccs1)NCc1ccccc1	11.2 µM [falling, partial curve, poor fit]	
COc1cc2c(cc1OC)-c1cc(Nc3ccccc3C)nc(=O)n1CC2	0.447 µM [rising, full curve, poor fit]	10 µM [falling, partial curve]
COCCn1c(N)c(S(=O)(=O)c2cccs2)c2nc3ccccc3nc21	1.46 µM [falling, partial curve, poor fit]	
CC1CN(C)C(C)CC1NCc1ccc2c(c1)OCO2 (centres undefined)	1.12 µM [falling, partial curve, poor fit]	
O=C(Nc1ccc(F)c(F)c1)c1cc(S(=O)(=O)N2CCc3ccccc32)ccc1F	10 µM [falling, partial curve]	
CCOc1cc(/C=C2\SC(=O)N(c3ccc(O)cc3)C2=O)ccc1O	12.6 µM [falling, partial curve]	
CC1=C(C#N)S(=O)(=O)C(C#N)C(c2ccccc2)C1 (centres undefined)	6.31 µM [rising, single point]	
Cc1ccc(-n2nc(C)c3c2OC(N)=C(C#N)C3c2ccco2)cc1 (centres undefined)	35.5 µM [falling, single point]	
Cc1nc(NC(=O)/C=C/c2ccccc2)sc1C(=O)Nc1ccc(Cl)cc1	35.5 µM [falling, single point]	

SMILES	AC50 [1]	AC50 [2]
CCCSC1=C(C#N)C(c2cccs2)C(C(=O)Nc2ccccc2)=C(C)N1 (centres undefined)	10.3 µM [falling, partial curve]	6.51 µM [rising, full curve, poor fit]
N#CC1=C(SCc2ccccc2)NC(=O)CC1c1ccco1 (centres undefined)	25.1 µM [falling, single point]	
Cc1cc(C(=O)COC(=O)c2ccc(F)cc2F)c(C)n1C1CC1	3.26 µM [rising, single point]	
CCC(CC)c1nnc(NC(=O)CCS(=O)(=O)Cc2ccccc2)s1	5.01 µM [falling, full curve]	
COC(=O)N(C)c1nc2ccccc2s1	0.794 µM [rising, full curve, poor fit]	
COC(=O)c1c(NC(=O)/C=C/c2ccc3c(c2)OCO3)sc(C)c1C	0.731 µM [falling, partial curve, poor fit]	
CSC1=NC(C)(C)C=C(/C=C/c2c(Cl)cccc2Cl)N1	10 µM [falling, partial curve]	
Cc1ccc(CN2C(=O)CCC2C(=O)NCCN(CC(C)C)CC(C)C)cc1 (centres undefined)	18.4 µM [falling, single point]	
CCc1sc(C(=O)NCCc2ccc(S(N)(=O)=O)cc2)cc1Br	5.01 µM [rising, full curve, poor fit]	
Cc1cccc(N2CCN(C(=O)COCc3cc(-c4ccc5c(c4)OCO5)on3)CC2)c1C	35.5 µM [falling, single point]	
O=C(N/N=C1/CCS(=O)(=O)c2ccc(F)cc21)c1cccnc1	0.1 µM [falling, full curve, poor fit]	
COC(=O)CCC(=O)OC1(C)C(=O)C=C2C=C(C3CC3)N(C3CCCCC3)C=C2C1=O (centres undefined)	20 µM [rising, partial curve, poor fit]	
CCC1(C)Cc2c(C#N)c(N)sc(=S)c2CO1 (centres undefined)	20 µM [rising, single point]	
O=c1ccn(Cc2ccccc2)cc1	35.5 µM [rising, single point]	
Cn1ccnc1SCC(=O)Nc1ccc2ccccc2c1	8.2 µM [falling, partial curve, poor fit]	
C=CCOc1ccc(/C=C/C(=O)OCC(=O)NCc2cccs2)cc1	14.6 µM [rising, partial curve]	
COc1cccc(/C=C/C(=O)c2ccc3c(c2)OCO3)c1OC	18.4 µM [falling, single point]	
O=C(NCC(c1cccs1)N1CCOCC1)c1cnc(Cl)c(Cl)c1 (centres undefined)	16.4 µM [falling, single point]	
O=C(CSc1nnc2ccccn12)Nc1ncc(Cl)cc1Cl	0.164 µM [rising, full curve, poor fit]	
CC1=CCC(C(=O)O)C(C(=O)NC2CCCCC2)C1 (centres undefined)	14.1 µM [falling, partial curve, poor fit]	
O=C(NCc1ccccc1)Nc1cc(Cl)ccc1Cl	0.316 µM [rising, full curve, poor fit]	

Part of the list above, bar-delimited.
SMILES | AC50 [1] | AC50 [2]
CCC1(C)Cc2c(C#N)c(N)sc(=S)c2CO1 (centres undefined) | 20 µM [rising, single point] | 
O=c1ccn(Cc2ccccc2)cc1 | 35.5 µM [rising, single point] | 
Cn1ccnc1SCC(=O)Nc1ccc2ccccc2c1 | 8.2 µM [falling, partial curve, poor fit] | 
